In article PMC9614494 one finds binding data, which are given here for 1 molecule.

By UniProt entry, the sequences of proteins in these tests, tags left out. Residues count along the entry.
UniProt Q42522, residues 37-472: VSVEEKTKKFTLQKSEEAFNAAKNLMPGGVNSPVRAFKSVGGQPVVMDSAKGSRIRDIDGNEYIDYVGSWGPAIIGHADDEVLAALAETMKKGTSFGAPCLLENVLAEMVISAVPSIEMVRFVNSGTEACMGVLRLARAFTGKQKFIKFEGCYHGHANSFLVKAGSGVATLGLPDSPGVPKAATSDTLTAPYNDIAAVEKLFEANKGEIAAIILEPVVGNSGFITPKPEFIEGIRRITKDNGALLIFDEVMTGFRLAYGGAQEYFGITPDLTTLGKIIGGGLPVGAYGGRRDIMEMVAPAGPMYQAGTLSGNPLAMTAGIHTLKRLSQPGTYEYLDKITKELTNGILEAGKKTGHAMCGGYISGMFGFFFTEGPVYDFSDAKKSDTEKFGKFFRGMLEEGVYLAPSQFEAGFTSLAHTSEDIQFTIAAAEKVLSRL

The test concerns the target GSAAT2 (glutamate-1-semialdehyde aminotransferase 2) fused to a half of YFP-Venus (Arabidopsis thaliana) (UniProt Q42522). Put plainly: split reporter; BiFC with halves of YFP-Venus, transient co-expression in N. benthamiana leaves for 48-72 h in the dark, confocal microscopy; GSAAT-YFPc with GBP-YFPn, HEMA1-YFPn or GSAAT-YFPn.

These are yes or no findings as the source states them, for the method shown. In cells and extracts the contact can be indirect. Some results given as binding are weak or reduced against the parent protein; the word gives no strength. Where a sequence is shown, tags or fusion partners need not be part of it.

B1: GluTR-binding protein (GBP) fused to the N-terminal half of YFP-Venus (protein, UniProt Q9LU39 43-317)
chain: SVSTTLDTPATASTHKPFPAEVSRSIMELSSVGTLSTLTHDGWPLGVGVRFAVDKDGTPVLCLNRSVSPDKRSALHVQLEQCGLRTPQCTIQGSIGRPGDDTVLKRLSATWREKFGEEVKEDSLYVVAVDRVLQMEDFMEDGIWVASSDYKNASPDPLRDIAEDIVNQINANNMEDIFRFCNVYVDLDFVVSETKMIWMDRLGFDLRVWSPRGVYDVRIPFPMEVTDEKGAKSSFNGMSQLAWEVEKSYCPADFNKVKLLKQVVGSSHSHKGGGQ
With B1, the binding result is “binds”.
